Measurements taken from the supplement of paper PMC10849652.
The other results are listed elsewhere or left out.

Protein sequences, listed by entry. Tags and fused reporters are not part of them. Lines headed by an entry give the natural chain unless they say otherwise; changes in a name come on top.
UniProt Q8N5M9: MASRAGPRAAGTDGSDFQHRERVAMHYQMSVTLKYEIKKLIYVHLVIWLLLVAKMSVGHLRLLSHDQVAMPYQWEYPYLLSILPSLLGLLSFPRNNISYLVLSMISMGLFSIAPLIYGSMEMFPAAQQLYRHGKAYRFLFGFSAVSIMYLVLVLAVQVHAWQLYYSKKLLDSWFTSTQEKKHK
UniProt Q8NC54: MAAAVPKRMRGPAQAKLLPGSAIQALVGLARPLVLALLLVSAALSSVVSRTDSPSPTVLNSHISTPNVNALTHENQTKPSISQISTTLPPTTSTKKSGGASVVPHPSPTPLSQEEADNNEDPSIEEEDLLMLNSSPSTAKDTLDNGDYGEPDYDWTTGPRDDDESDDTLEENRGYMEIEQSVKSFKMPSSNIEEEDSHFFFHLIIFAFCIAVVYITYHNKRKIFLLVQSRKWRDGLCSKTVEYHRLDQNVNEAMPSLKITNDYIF
UniProt Q9ULH0: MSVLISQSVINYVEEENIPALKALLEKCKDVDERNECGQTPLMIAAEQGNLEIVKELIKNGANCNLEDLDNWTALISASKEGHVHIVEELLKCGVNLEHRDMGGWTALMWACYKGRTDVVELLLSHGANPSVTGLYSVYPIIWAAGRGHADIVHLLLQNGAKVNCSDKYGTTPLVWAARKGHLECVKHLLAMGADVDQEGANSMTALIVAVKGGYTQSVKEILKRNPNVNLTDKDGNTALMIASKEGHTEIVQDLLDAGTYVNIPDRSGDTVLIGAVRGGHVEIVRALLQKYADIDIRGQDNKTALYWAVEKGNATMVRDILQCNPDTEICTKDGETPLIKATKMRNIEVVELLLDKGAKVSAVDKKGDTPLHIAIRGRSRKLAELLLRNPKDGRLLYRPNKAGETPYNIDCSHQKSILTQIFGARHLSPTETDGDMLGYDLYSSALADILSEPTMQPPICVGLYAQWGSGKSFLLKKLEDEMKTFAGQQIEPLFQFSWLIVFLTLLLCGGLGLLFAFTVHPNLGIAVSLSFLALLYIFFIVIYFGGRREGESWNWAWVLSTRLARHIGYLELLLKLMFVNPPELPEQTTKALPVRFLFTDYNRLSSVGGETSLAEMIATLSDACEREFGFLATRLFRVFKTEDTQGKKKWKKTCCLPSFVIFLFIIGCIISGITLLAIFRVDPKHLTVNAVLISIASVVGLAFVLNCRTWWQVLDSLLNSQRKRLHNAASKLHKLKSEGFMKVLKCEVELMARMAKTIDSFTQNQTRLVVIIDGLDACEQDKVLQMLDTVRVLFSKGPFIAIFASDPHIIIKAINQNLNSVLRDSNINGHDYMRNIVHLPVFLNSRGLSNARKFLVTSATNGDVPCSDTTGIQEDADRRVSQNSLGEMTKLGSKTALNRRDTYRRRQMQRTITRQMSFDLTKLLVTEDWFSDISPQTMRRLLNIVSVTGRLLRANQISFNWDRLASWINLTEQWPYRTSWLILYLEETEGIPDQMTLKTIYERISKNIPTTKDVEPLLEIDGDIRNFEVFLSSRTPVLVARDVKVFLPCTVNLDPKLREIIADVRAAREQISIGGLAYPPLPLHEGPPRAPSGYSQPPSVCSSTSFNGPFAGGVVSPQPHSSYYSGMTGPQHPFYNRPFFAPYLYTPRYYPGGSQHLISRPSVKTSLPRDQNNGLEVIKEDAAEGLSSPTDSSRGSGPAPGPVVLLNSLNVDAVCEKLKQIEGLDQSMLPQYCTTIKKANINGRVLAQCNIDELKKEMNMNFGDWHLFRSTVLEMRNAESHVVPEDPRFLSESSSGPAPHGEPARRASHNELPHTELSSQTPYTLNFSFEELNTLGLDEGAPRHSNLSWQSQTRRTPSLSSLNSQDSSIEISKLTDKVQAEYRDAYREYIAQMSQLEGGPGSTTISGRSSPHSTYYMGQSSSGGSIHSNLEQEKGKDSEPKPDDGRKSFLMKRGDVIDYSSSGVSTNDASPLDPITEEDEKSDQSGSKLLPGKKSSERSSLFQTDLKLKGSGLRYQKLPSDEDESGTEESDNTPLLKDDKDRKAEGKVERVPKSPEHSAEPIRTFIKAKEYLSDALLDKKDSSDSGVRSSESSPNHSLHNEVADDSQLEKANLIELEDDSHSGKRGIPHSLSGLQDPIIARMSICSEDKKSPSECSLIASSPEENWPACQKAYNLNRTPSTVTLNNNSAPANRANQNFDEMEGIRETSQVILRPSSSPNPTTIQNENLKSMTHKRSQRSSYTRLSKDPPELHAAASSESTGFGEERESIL
UniProt Q8TBB5: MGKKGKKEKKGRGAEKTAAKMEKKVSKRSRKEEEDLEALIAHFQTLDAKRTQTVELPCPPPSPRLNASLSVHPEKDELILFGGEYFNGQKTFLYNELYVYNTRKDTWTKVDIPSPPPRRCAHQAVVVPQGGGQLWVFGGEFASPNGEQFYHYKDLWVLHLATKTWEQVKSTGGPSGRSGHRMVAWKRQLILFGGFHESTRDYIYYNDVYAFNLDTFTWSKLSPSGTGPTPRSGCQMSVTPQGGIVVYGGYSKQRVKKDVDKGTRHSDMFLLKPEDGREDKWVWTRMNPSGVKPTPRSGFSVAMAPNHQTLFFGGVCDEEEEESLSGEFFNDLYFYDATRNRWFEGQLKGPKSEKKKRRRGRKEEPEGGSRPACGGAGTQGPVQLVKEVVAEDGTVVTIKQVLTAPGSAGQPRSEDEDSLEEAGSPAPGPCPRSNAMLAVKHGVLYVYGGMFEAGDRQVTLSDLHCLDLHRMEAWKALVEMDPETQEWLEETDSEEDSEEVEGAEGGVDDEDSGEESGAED
UniProt Q9NXV2: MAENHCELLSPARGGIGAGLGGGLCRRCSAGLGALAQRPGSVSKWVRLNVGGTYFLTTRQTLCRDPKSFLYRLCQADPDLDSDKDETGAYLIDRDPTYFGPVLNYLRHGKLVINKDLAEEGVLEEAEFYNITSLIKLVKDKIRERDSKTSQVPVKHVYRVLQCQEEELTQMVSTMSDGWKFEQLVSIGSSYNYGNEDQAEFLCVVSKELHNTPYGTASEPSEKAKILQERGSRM
UniProt Q7Z4S6: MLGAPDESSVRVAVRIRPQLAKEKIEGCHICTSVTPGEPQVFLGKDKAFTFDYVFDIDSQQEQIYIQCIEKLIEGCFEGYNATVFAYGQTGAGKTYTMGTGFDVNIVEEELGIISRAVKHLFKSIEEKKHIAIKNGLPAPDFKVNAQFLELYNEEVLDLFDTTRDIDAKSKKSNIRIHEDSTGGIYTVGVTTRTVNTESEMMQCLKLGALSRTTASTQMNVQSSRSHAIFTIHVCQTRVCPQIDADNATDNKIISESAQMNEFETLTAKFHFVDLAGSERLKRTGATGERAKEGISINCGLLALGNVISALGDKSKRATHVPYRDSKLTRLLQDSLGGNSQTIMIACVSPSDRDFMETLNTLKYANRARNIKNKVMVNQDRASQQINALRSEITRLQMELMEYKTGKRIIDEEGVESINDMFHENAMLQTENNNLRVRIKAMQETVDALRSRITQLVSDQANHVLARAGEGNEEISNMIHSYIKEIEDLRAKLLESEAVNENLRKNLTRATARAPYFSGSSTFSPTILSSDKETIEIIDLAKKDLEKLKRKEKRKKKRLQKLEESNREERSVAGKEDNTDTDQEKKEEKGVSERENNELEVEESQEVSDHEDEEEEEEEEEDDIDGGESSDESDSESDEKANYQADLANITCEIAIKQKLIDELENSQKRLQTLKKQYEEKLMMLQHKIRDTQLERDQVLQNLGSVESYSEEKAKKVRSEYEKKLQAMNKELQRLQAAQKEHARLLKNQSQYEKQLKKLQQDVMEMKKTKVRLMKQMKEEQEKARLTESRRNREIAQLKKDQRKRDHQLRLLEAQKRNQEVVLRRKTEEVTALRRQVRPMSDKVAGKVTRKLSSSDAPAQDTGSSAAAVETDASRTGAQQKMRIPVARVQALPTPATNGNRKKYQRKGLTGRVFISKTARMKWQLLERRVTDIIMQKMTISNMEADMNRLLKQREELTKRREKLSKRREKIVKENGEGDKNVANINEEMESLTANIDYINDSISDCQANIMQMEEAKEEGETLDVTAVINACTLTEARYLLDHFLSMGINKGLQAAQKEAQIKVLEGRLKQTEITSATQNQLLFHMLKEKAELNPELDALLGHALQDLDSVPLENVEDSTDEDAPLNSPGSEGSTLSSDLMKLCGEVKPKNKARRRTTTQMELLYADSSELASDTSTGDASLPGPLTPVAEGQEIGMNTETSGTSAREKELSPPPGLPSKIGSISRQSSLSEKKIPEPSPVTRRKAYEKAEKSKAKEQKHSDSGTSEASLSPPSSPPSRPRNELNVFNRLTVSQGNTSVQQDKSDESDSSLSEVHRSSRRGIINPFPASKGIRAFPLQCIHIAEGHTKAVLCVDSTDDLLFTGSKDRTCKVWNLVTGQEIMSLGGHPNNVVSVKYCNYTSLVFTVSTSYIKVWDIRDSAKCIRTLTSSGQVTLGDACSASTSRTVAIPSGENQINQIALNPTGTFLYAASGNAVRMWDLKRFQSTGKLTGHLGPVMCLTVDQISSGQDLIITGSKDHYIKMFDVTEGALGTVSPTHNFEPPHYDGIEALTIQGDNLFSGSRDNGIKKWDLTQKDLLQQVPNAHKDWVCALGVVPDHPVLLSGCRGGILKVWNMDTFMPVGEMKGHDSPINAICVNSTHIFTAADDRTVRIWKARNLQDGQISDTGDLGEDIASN
UniProt Q9Y219: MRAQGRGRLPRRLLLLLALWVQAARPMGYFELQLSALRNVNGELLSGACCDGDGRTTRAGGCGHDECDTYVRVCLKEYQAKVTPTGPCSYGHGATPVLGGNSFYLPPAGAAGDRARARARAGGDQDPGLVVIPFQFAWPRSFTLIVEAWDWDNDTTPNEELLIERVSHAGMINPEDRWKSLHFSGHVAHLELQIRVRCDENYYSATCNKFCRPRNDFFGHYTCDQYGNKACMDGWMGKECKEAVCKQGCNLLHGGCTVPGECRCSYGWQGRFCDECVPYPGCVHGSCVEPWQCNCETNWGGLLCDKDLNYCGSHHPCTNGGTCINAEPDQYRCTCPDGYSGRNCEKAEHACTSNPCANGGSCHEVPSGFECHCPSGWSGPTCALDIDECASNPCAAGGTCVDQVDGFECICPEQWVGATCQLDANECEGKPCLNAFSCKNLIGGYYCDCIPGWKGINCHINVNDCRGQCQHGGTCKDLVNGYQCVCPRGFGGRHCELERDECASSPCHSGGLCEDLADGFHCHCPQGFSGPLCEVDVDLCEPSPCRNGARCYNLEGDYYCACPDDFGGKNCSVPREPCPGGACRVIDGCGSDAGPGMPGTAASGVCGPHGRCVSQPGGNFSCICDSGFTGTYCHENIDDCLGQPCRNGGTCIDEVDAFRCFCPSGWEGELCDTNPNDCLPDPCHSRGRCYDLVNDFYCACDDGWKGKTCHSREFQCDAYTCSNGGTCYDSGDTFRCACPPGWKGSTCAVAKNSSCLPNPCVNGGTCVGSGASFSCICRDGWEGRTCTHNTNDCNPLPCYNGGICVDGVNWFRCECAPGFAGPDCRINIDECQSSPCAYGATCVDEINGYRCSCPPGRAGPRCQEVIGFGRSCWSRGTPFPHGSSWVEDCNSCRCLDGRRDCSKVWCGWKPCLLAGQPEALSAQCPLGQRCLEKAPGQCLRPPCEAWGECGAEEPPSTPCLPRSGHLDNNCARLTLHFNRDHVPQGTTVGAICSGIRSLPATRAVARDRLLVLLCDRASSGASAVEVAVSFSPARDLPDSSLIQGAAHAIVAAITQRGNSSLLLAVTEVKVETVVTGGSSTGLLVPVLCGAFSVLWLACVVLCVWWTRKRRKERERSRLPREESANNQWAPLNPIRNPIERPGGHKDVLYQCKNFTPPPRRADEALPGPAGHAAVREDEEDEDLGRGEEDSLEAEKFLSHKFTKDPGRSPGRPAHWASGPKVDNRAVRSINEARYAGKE
UniProt O00505, whole entry, looked up: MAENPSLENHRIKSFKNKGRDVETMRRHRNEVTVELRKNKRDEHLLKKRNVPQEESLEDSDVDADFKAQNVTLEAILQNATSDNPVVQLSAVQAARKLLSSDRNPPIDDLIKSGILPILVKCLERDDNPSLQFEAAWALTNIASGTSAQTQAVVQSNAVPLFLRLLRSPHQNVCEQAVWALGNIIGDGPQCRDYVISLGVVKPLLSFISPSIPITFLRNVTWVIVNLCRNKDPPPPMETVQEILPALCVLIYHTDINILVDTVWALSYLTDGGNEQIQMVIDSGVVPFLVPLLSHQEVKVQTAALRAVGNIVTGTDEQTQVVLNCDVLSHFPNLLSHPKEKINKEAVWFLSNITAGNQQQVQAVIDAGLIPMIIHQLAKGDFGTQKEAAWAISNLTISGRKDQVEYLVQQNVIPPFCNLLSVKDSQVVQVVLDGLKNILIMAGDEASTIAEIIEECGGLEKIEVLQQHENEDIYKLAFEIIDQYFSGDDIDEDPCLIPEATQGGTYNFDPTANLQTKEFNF
UniProt Q15053: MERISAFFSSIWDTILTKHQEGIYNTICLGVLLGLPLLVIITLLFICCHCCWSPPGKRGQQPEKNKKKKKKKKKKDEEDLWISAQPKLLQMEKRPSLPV

What was measured:
Experiment in all cases: log2 fold change, soluble protein after heating vs DMSO (PISA); higher = thermal stabilisation; K562 cells, 10 uM, 30 min; active = over 0.2 and 3.5 SD of the protein, either way, in both replicates (recomputed)
erlotinib = compound: C#Cc1cccc(Nc2ncnc3cc(OCCOC)c(OCCOC)cc23)c1 [erlotinib]
Outline: (§1)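 K562 cells at 2×10^6 cells/mL were exposed to 10 μM compound for 30 min, then aliquots were heated for 3 min across 48°C-58°C, pooled, and extracted in PBS containing 0.5% NP-40 at 4°C. The supernatant after 21,000xg for 90 min was taken as soluble protein and measured by TMTpro 16plex LC-MS/MS with channel sums equalised. Thermal stability is reported relative to control samples, with values from duplicates. Fold changes are given on a log2 scale.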

[1] = compound: C/C(=N\NC(=O)C1=CC(=CC=C1)S(=O)(=O)N2CCOCC2)/C3=C(C=CC(=C3)Cl)O
Outline: as §1

[2] = compound: C1=CC(=C(C=C1Cl)C2=NC3=NC=CN=C3C(=N2)NC4=CC=NC=C4)F
Outline: as §1

[3] = compound: C1=CC(=CC=C1C2=NC3=C(N2)C=C(C=C3)C(=O)N)OC4=CC=C(C=C4)Cl
Outline: as §1

[4] = compound: C1=CC2=C(C=CC(=C2)/C=C\3/C(=O)NC(=NCC4=CC=CS4)S3)N=C1
Outline: as §1

[5] = compound: C1=CC2=NC=CN=C2C=C1/C=C/3\C(=O)NC(=O)S3
Outline: as §1

[6] = compound: C1=CC=C(C=C1)C2=NC(=C(N2)C3=CC=NC=C3)C4=CC(=C(C=C4)Cl)O
Outline: as §1

[7] = compound: C1=CC=C2C(=C1)C3=NNC4=CC=CC(=C43)C2=O
Outline: as §1

[8] = compound: C1CCN(C1)C(=O)NC2=CC=CC(=C2)NC3=NC=C(C(=N3)NCCC4=CN=CN4)Br
Outline: as §1

[9] = compound: C1CN(CCC1(CC2=CC=C(C=C2)Cl)N)C3=NC=NC4=C3C=CN4
Outline: as §1

Measured: log2 fold change

KDM3B (UniProt Q7LBC6)
inactive: erlotinib 0.029 | [1] 0.051 | [2] 0.083 | [3] -0.019 | [4] 0 | [5] 0.043 | [6] 0.029 | [7] -0.015 | [8] -0.03 | [9] 0.008

KPNA6 (UniProt O60684)
inactive: erlotinib 0.077 | [1] 0.108 | [2] -0.068 | [3] -0.075 | [4] 0.013 | [5] 0.059 | [6] 0.015 | [7] -0.119 | [8] 0.017 | [9] -0.07

JAGN1 (UniProt Q8N5M9)
inactive: erlotinib -0.003 | [1] -0.023 | [2] 0.039 | [3] 0.05 | [4] 0.133 | [5] 0.022 | [6] 0.041 | [7] 0.028 | [8] 0.003 | [9] -0.021

JPT2 isoform 3 (UniProt Q9H910)
inactive: erlotinib 0.002 | [1] -0.046 | [2] 0.048 | [3] 0.03 | [4] -0.062 | [5] -0.003 | [6] -0.001 | [7] 0.032 | [8] 0.044 | [9] 0.047

JMJD6 isoform 3 (UniProt Q6NYC1)
inactive: erlotinib -0.009 | [1] 0.011 | [2] 0.039 | [3] 0.044 | [4] 0.051 | [5] 0.03 | [6] 0.107 | [7] -0.037 | [8] -0.007 | [9] 0.181

KPNA1 (UniProt P52294)
inactive: erlotinib -0.042 | [1] 0.09 | [2] -0.053 | [3] -0.037 | [4] -0.011 | [5] 0.009 | [6] 0.035 | [7] -0.061 | [8] -0.032 | [9] -0.07

Fetched one by one from the entries so far, two records:
JPT2 isoform 3 (UniProt Q9H910)
inactive: erlotinib 0.002 | [1] -0.046 | [2] 0.048 | [3] 0.03 | [4] -0.062 | [5] -0.003 | [6] -0.001 | [7] 0.032 | [8] 0.044 | [9] 0.047

KDM3B (UniProt Q7LBC6)
inactive: erlotinib 0.029 | [1] 0.051 | [2] 0.083 | [3] -0.019 | [4] 0 | [5] 0.043 | [6] 0.029 | [7] -0.015 | [8] -0.03 | [9] 0.008

Later entries

KIF15 (UniProt Q9NS87)
inactive: erlotinib 0.02 | [1] -0.042 | [2] -0.326 | [3] -0.087 | [4] -0.007 | [5] -0.074 | [6] 0.007 | [7] -0.105 | [8] -0.076 | [9] -0.094

KCT2 (UniProt Q8NC54)
inactive: erlotinib 0.069 | [1] 0.019 | [2] 0.064 | [3] 0.061 | [4] -0.005 | [5] 0.075 | [6] 0.096 | [7] -0.005 | [8] -0.028 | [9] 0.056

KCTD2 (UniProt Q14681)
inactive: erlotinib 0.177 | [1] -0.154 | [2] -0.125 | [3] -0.126 | [4] 0.158 | [5] -0.062 | [6] 0.055 | [7] -0.106 | [8] 0.26 | [9] -0.005

KIDINS220 (UniProt Q9ULH0)
inactive: erlotinib -0.028 | [1] -0.01 | [2] 0.023 | [3] 0.054 | [4] -0.014 | [5] 0.006 | [6] 0.007 | [7] -0.066 | [8] -0.033 | [9] 0.034

KATNA1 (UniProt O75449)
inactive: erlotinib -0.038 | [1] 0.023 | [2] -0.077 | [3] 0.03 | [4] 0.051 | [5] -0.012 | [6] -0.021 | [7] 0.027 | [8] 0.014 | [9] -0.084

KLHDC4 (UniProt Q8TBB5)
inactive: erlotinib -0.066 | [1] -0.075 | [2] -0.174 | [3] -0.013 | [4] 0.077 | [5] -0.123 | [6] -0.081 | [7] 0.07 | [8] -0.113 | [9] 0.119

KARS1 (UniProt Q15046)
inactive: erlotinib -0.048 | [1] -0.054 | [2] -0.272 | [3] 0.053 | [4] -0.016 | [5] 0.05 | [6] -0.069 | [7] -0.026 | [8] 0.03 | [9] -0.042

KCTD5 (UniProt Q9NXV2)
inactive: erlotinib 0.036 | [1] 0.062 | [2] 0.081 | [3] 0.026 | [4] 0.14 | [5] 0.038 | [6] 0.043 | [7] -0.14 | [8] 0.015 | [9] 0.03

IWS1 (UniProt Q96ST2)
inactive: erlotinib 0.029 | [1] 0.029 | [2] 0.091 | [3] 0 | [4] -0.033 | [5] 0.022 | [6] -0.013 | [7] -0.077 | [8] -0.067 | [9] -0.033

KIF5B (UniProt P33176)
inactive: erlotinib -0.022 | [1] 0.041 | [2] 0.08 | [3] -0.008 | [4] 0.01 | [5] 0.031 | [6] 0.066 | [7] 0.022 | [8] 0.004 | [9] -0.031

KCNAB2 (UniProt Q13303)
inactive: erlotinib -0.023 | [1] -0.049 | [2] -0.012 | [3] 0.089 | [4] 0.017 | [5] 0.133 | [6] -0.073 | [7] -0.004 | [8] 0.013 | [9] 0.053

KIF21A isoform 4 (UniProt Q7Z4S6)
inactive: erlotinib 0.017 | [1] 0.056 | [2] -0.043 | [3] -0.016 | [4] -0.023 | [5] 0.006 | [6] -0.075 | [7] -0.065 | [8] -0.144 | [9] -0.233

JAG2 (UniProt Q9Y219)
inactive: erlotinib 0.016 | [1] -0.019 | [2] -0.019 | [3] 0.04 | [4] -0.041 | [5] -0.112 | [6] -0.159 | [7] -0.233 | [8] -0.081 | [9] 0.081

KPNA3 (UniProt O00505)
inactive: erlotinib -0.038 | [1] 0.048 | [2] 0.056 | [3] 0.076 | [4] 0.047 | [5] 0.032 | [6] -0.005 | [7] -0.007 | [8] 0.011 | [9] 0.011

JOSD1 (UniProt Q15040)
inactive: erlotinib -0.045 | [1] 0.431 | [2] 0.109 | [3] 0.006 | [4] 0 | [7] 0.106

KDM3A (UniProt Q9Y4C1)
inactive: erlotinib 0.148 | [3] -0.08

KAT7 (UniProt O95251)
inactive: erlotinib 0.284 | [1] 0 | [3] -0.152 | [4] -0.225 | [5] 0 | [6] 0.225 | [7] 0.231

KLHL20 (UniProt Q9Y2M5)
inactive: erlotinib -0.091 | [1] -0.081 | [3] -0.019 | [4] 0.034 | [6] -0.078 | [7] 0.018 | [8] 0.001 | [9] 0.023

KIAA0040 (UniProt Q15053)
inactive: erlotinib -0.121 | [1] -0.253 | [3] -0.125 | [4] 0.201 | [7] -0.125
